Data as given in PubChem BioAssay AID493014 (National Center for Advancing Translational Sciences (NCATS), 2011).
Some of the results follow. Shown are side measurements of this screen, not its main read-out; they come without a call. The list favours compounds with an active or inconclusive main result. Potencies come from curve fits of mixed quality, noted in brackets.

Experiment: qHTS Assay to Find Inhibitors of Chronic Active B-Cell Receptor Signaling
Settings: ABC-DLBCL IkBa-CBG/CBR reporter, luminescence ratio (green luciferase fused to IkBa over red control in TMD8 lymphoma cells), 4 h
Procedure, shortened: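 Compounds up to 46 uM were incubated four hours with TMD8 cells whose green CBG68 luciferase is fused to IkappaBalpha; red CBR luminescence normalised the signal, and concentration-effect curves were fitted to fusion, red and ratio data.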

[1] = measured here: CBR red luminescence, cell number
[2] = measured here: IkBa-CBG green luminescence

SMILES: Cc1ccccc1NC(=O)Cc1nc(COC(=O)c2ccc(O)cc2O)cs1
- AC50 [1]: 22.4 µM [falling, single point]

SMILES: CN(CC(=O)Nc1ccc(N2CCOCC2)cc1)C(=O)c1cc2c(s1)CCCC2
- AC50 [1]: 29.1 µM [rising, partial curve, poor fit]

SMILES: C/C(=C\C(=O)c1ccccc1)Nc1cccc(O)c1
- AC50 [1]: 0.398 µM [rising, full curve, poor fit]

SMILES: Oc1ccc(Cl)cc1/C=N/c1nc2ccccc2[nH]1
- AC50 [1]: 10 µM [falling, partial curve]

SMILES: CCN1CCN(Cc2ccc(NC(=O)c3ccc(C)c(NC(=O)c4cc(-c5ccc(Br)cc5)n[nH]4)c3)cc2C(F)(F)F)CC1
- AC50 [1]: 1.58 µM [falling, partial curve, poor fit]

SMILES: CC(=O)N1CCOc2cc(S(=O)(=O)NCc3ccc(F)cc3)c(C)cc21
- AC50 [1]: 35.5 µM [falling, single point]

SMILES: O=C(Nc1ccc2c(c1)CCCN2C(=O)c1cccs1)c1ccccc1
- AC50 [1]: 35.5 µM [falling, single point]

SMILES: COC(=O)c1ccc(NC(=S)NCCC2=CCCCC2)cc1
- AC50 [1]: 0.447 µM [falling, full curve, poor fit]

SMILES: CCOC(=O)C1(CCOc2ccccc2)CCN(CC2CC2)CC1
- AC50 [1]: 0.112 µM [rising, full curve, poor fit]

SMILES: O=C(c1ccc(Cl)cc1)c1c[nH]c(C(=O)NNc2ccccc2)c1
- AC50 [1]: 20 µM [falling, single point]

SMILES: COc1ccc(C(C#N)N2N=C(C)CC2c2ccccc2)cc1 (stereo not drawn)
- AC50 [1]: 3.55 µM [rising, partial curve]

SMILES: CCOC(=O)c1c(S(=O)(=O)N2CCCC(C(=O)Nc3ccc(C)cn3)C2)c(C)n(C)c1C (stereo not drawn)
- AC50 [1]: 2.51 µM [falling, partial curve]

SMILES: CC1CC(=O)C2=C(C1)Nc1ccccc1SC2c1ccc(F)cc1 (stereo not drawn)
- AC50 [1]: 20.6 µM [falling, partial curve]
- AC50 [2]: 18.4 µM [rising, partial curve, poor fit]

SMILES: O=C(O)CCC1COc2ccccc2O1 (stereo not drawn)
- AC50 [1]: 3.26 µM [rising, partial curve, poor fit]

SMILES: O=C1c2ccccc2C(=O)N1c1cccc(-c2csc(Nc3ccc4c(c3)OCO4)n2)c1
- AC50 [1]: 29.1 µM [rising, single point]

SMILES: Cc1ccc(CNc2ccc(Cl)cc2[N+](=O)[O-])cc1
- AC50 [1]: 3.16 µM [rising, full curve, poor fit]

SMILES: Cc1ccc(C2(C)NC(=O)N(CC(=O)N3CCN(S(=O)(=O)c4ccc(Cl)s4)CC3)C2=O)cc1 (stereo not drawn)
- AC50 [1]: 18.4 µM [falling, partial curve]

SMILES: COC(=O)c1ccc(-c2noc(CN(C)CC3CCCCO3)n2)cc1 (stereo not drawn)
- AC50 [1]: 35.5 µM [falling, partial curve, poor fit]

SMILES: O=C(N/N=C/C=C/c1ccccc1)c1ccccc1Br
- AC50 [1]: 5.01 µM [falling, partial curve, poor fit]

SMILES: CCOC(=O)C(C)Sc1nc2c([nH]c3ccccc32)c(=O)n1C (stereo not drawn)
- AC50 [1]: 0.651 µM [falling, full curve, poor fit]

SMILES: COc1ccc(-c2cc(C3CC3)nc3sc(C#N)c(N)c23)cc1
- AC50 [1]: 14.6 µM [falling, single point]

SMILES: CCNC(=O)CN(CCc1ccccc1)S(C)(=O)=O
- AC50 [1]: 0.259 µM [rising, full curve, poor fit]

SMILES: CCCCCN(C(=O)CSc1n[nH]c(-c2ccc(C)cc2)n1)c1c(N)n(CCCC)c(=O)[nH]c1=O
- AC50 [1]: 29.1 µM [falling, single point]

SMILES: CCOCC(O)CNC(=O)c1ccc2nc(Cc3ccc(OC)c(OC)c3)oc2c1 (stereo not drawn)
- AC50 [1]: 17.8 µM [falling, single point]

SMILES: O=C(NC1CC1)C1=C[C@@H](c2coc3ccccc3c2=O)C[C@@H](OCc2ccc(CO)cc2)O1
- AC50 [1]: 8.91 µM [rising, partial curve, poor fit]

SMILES: CCOC(=O)C(=O)N(Nc1ccc(C)cc1)c1ccc(C)cc1
- AC50 [1]: 44.7 µM [rising, partial curve, poor fit]

SMILES: CCn1nc(NC(=O)c2ccco2)c2cc3cc(C)ccc3nc21
- AC50 [1]: 3.55 µM [falling, partial curve]

SMILES: N#Cc1cc2c(nc1SCc1ccccc1)CCCC2
- AC50 [1]: 9.2 µM [rising, single point]

SMILES: CCOc1ccccc1N(CC(=O)NC1CCCCC1)S(=O)(=O)c1ccc(C)cc1
- AC50 [1]: 0.794 µM [falling, full curve, poor fit]

SMILES: O=C(/C=C/c1ccccc1)Nc1scc(-c2ccccc2)c1C(=O)O
- AC50 [1]: 17.8 µM [falling, partial curve, poor fit]

SMILES: C=CCSc1nc(C)cc2c1C(=O)OC2
- AC50 [1]: 2.24 µM [rising, partial curve, poor fit]
- AC50 [2]: 12.6 µM [falling, partial curve]

SMILES: O=C(CCN1CCN(c2ccccc2)CC1)NNC(=O)Cc1ccc(Br)cc1
- AC50 [1]: 2.59 µM [rising, single point]

SMILES: Cc1nn(C)cc1/C=N\NC(=O)c1ccc2c(c1)c(C)c(C)n2Cc1ccccc1
- AC50 [1]: 13 µM [rising, partial curve]

SMILES: CCN(CC)C(c1ccc(C)cc1)c1nnnn1C1CCCCC1 (stereo not drawn)
- AC50 [1]: 0.461 µM [falling, partial curve, poor fit]

SMILES: S=C1Nc2ccccc2Sc2ccc(Cl)cc21
- AC50 [1]: 10.3 µM [rising, partial curve, poor fit]

SMILES: Oc1cccc(/C=N/Nc2cccc3cccnc23)c1
- AC50 [1]: 0.562 µM [rising, full curve, poor fit]

SMILES: Cc1ccc2cc(NC(=O)c3ccccc3C)ccc2n1
- AC50 [1]: 11.2 µM [falling, partial curve, poor fit]

SMILES: CCc1ccc(-c2nn(-c3ccccc3)cc2C2SCC(=O)N2Cc2ccco2)cc1 (stereo not drawn)
- AC50 [1]: 20.6 µM [falling, single point]
- AC50 [2]: 25.9 µM [rising, partial curve, poor fit]

SMILES: CCOCCCNCc1cccc(OCc2ccc(F)cc2)c1
- AC50 [1]: 2.31 µM [rising, partial curve, poor fit]

SMILES: COc1ccc(-c2cn3cccnc3n2)cc1NC(=O)c1ccc(Br)o1
- AC50 [1]: 35.5 µM [falling, single point]
